# Some of the results follow.
# Columns and labels:
# Assay in all cases: glycan array binding signal (z-score within array); higher = stronger binding
# Settings in all cases: glycan notation: IUPAC condensed, linker removed
# [1] = target: Gal(b1-4)GlcNAc(b1-3)Gal(b1-4)Glc
# In short: (§1)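 From the Consortium for Functional Glycomics database, 3228 arrays were curated, keeping only those whose protein sequence was available. Binding is given as a within-array Z-score averaged across arrays sharing a protein sequence and across linkers. Negative Z-scores can be read as non-binding.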
# [2] = target: Gal(b1-4)GlcNAc(b1-3)Gal(b1-4)GlcNAc
# In short: as §1
# [3] = target: Gal(b1-4)GlcNAc(b1-3)Gal(b1-4)GlcNAc(b1-3)Gal(b1-4)GlcNAc
# In short: as §1
# [4] = target: Gal(b1-4)GlcNAc(b1-3)Gal(b1-4)[Fuc(a1-3)GlcNAc(b1-6)]Gal(b1-4)Glc
# In short: as §1
# [5] = target: Gal(b1-4)GlcNAc(b1-3)Gal(b1-4)[Fuc(a1-3)]GlcNAc(b1-3)Gal(b1-4)[Fuc(a1-3)]GlcNAc
# In short: as §1
# [6] = target: Gal(b1-4)GlcNAc(b1-3)GalNAc
# In short: as §1
# [7] = target: Gal(b1-4)GlcNAc(b1-3)[Gal(b1-4)GlcNAc(b1-6)]Gal(b1-4)GlcNAc
# In short: as §1
# [8] = target: Gal(b1-4)GlcNAc(b1-3)[Gal(b1-4)GlcNAc(b1-6)]GalNAc
# In short: as §1
# [9] = target: Gal(b1-4)GlcNAc(b1-3)[GlcNAc(b1-6)]Gal(b1-4)GlcNAc
# In short: as §1
# [10] = target: Gal(b1-4)GlcNAc(b1-6)Gal(b1-4)GlcNAc
# In short: as §1
# [11] = target: Gal(b1-4)GlcNAc(b1-6)GalNAc
# In short: as §1
# [12] = target: Gal(b1-4)GlcNAc(b1-6)[Gal(b1-3)]GalNAc
# In short: as §1
# [13] = target: Gal(b1-6)Gal
# In short: as §1
# [14] = target: Gal3S(b1-3)GalNAc
# In short: as §1
# [15] = target: Gal3S(b1-3)GlcNAc
# In short: as §1
# [16] = target: Gal3S(b1-3)[Fuc(a1-4)]GlcNAc
# In short: as §1
# [17] = target: Gal3S(b1-4)Glc
# In short: as §1
# [18] = target: Gal3S(b1-4)Glc6S
# In short: as §1
# [19] = target: Gal3S(b1-4)GlcNAc
# In short: as §1
# [20] = target: Gal3S(b1-4)GlcNAc6S
# In short: as §1
# [21] = target: Gal3S(b1-4)[Fuc(a1-3)]Glc
# In short: as §1
# [22] = target: Gal3S(b1-4)[Fuc(a1-3)]Glc6S
# In short: as §1
# [23] = target: Gal3S4S(b1-4)GlcNAc
# In short: as §1
# [24] = target: Gal3S6S(b1-4)GlcNAc
# In short: as §1
# [25] = target: Gal3S6S(b1-4)GlcNAc6S
# In short: as §1
# [26] = target: Gal4S(b1-4)GlcNAc
# In short: as §1
# [27] = target: Gal4S6S(b1-4)GlcNAc
# In short: as §1
# [28] = target: Gal6S(b1-3)GlcNAc
# In short: as §1
# [29] = target: Gal6S(b1-3)GlcNAc6S
# In short: as §1
# [30] = target: Gal6S(b1-4)Glc
# In short: as §1
# [31] = target: Gal6S(b1-4)Glc6S
# In short: as §1
# [32] = target: Gal6S(b1-4)GlcNAc
# In short: as §1
# [33] = target: Gal6S(b1-4)GlcNAc6S
# In short: as §1
# [34] = target: GalNAc(a1-3)Gal
# In short: as §1
# [35] = target: GalNAc(a1-3)GalNAc
# In short: as §1
# [36] = target: GalNAc(a1-3)GalNAc(a1-3)Gal(a1-4)Gal(b1-4)GlcNAc
# In short: as §1
# [37] = target: GalNAc(a1-3)GalNAc(b1-3)Gal(a1-4)Gal(b1-4)Glc
# In short: as §1
# [38] = target: GalNAc(b1-3)Gal
# In short: as §1
# [39] = target: GalNAc(b1-3)Gal(a1-4)Gal(b1-4)GlcNAc
# In short: as §1
# [40] = target: GalNAc(b1-3)Gal(a1-4)Gal(b1-4)GlcNAc(b1-3)Gal(b1-4)Glc
# In short: as §1
# [41] = target: GalNAc(b1-3)Gal(a1-6)Gal(b1-4)Glc
# In short: as §1
# [42] = target: GalNAc(b1-3)GalNAc
# In short: as §1
# [43] = target: GalNAc(b1-4)Gal(b1-4)Glc
# In short: as §1
# [44] = target: GalNAc(b1-4)GlcNAc
# In short: as §1
# [45] = target: GalNAc(b1-4)GlcNAc(b1-2)Man(a1-3)[GalNAc(b1-4)GlcNAc(b1-2)Man(a1-6)]Man(b1-4)GlcNAc(b1-4)GlcNAc
# In short: as §1
binder,measurement,setting,value
"Layilin (Mus musculus), Q8C351 (protein) MQPGAALQAMLLAVLLAKPRDSKGRLLSASDLDPRGGQLVCRGGTRRPCYKVIYFHDAFQRLNFEEAKETCMEDGGQLVSIETEDEQRLIEKFIENLLASDGDFWIGLKRLEEKQSNNTACQDLYAWTDGSTSQFRNWYVDEPSCGSEVCVVMYHQPSAPPGIGGSYMFQWNDDRCNMKNNFICKYHDDKPSTTPSIWPGGEATEPATPLLPEETQKEDTKETFKERREAALNLAYILIPSIPLFLLLVVTSAVCWVWICRRKREQTDPSTKEQHTIWPTPRQENSPNLDVYNVIRKQSEADLAEPRPDLKNISFRVCSGEAMPDDMSCDYENIAVNPSESGFVTLASMESGFVTNDIYEFSPDRMGRSKESGWVENEIYY",glycan array binding signal (z-score),[1],-0.318
same,glycan array binding signal (z-score),[2],0.267
same,glycan array binding signal (z-score),[3],1.49
same,glycan array binding signal (z-score),[4],-0.248
same,glycan array binding signal (z-score),[5],-0.332
same,glycan array binding signal (z-score),[6],-0.153
same,glycan array binding signal (z-score),[7],0.967
same,glycan array binding signal (z-score),[8],-0.287
same,glycan array binding signal (z-score),[9],0.014
same,glycan array binding signal (z-score),[10],-0.582
same,glycan array binding signal (z-score),[11],-0.296
same,glycan array binding signal (z-score),[12],-0.278
same,glycan array binding signal (z-score),[13],-0.22
same,glycan array binding signal (z-score),[14],-0.76
same,glycan array binding signal (z-score),[15],-0.637
same,glycan array binding signal (z-score),[16],-0.293
same,glycan array binding signal (z-score),[17],-0.09
same,glycan array binding signal (z-score),[18],-0.128
same,glycan array binding signal (z-score),[19],0.53
same,glycan array binding signal (z-score),[20],-0.103
same,glycan array binding signal (z-score),[21],0.667
same,glycan array binding signal (z-score),[22],0.774
same,glycan array binding signal (z-score),[23],0.109
same,glycan array binding signal (z-score),[24],-0.561
same,glycan array binding signal (z-score),[25],-0.066
same,glycan array binding signal (z-score),[26],-0.069
same,glycan array binding signal (z-score),[27],-0.407
same,glycan array binding signal (z-score),[28],-0.243
same,glycan array binding signal (z-score),[29],-0.828
same,glycan array binding signal (z-score),[30],0.202
same,glycan array binding signal (z-score),[31],1.24
same,glycan array binding signal (z-score),[32],1.21
same,glycan array binding signal (z-score),[33],-0.334
same,glycan array binding signal (z-score),[34],-0.12
same,glycan array binding signal (z-score),[35],0.033
same,glycan array binding signal (z-score),[36],-0.071
same,glycan array binding signal (z-score),[37],0.994
same,glycan array binding signal (z-score),[38],0.343
same,glycan array binding signal (z-score),[39],-0.202
same,glycan array binding signal (z-score),[40],-1.32
same,glycan array binding signal (z-score),[41],-0.528
same,glycan array binding signal (z-score),[42],-0.932
same,glycan array binding signal (z-score),[43],-0.577
same,glycan array binding signal (z-score),[44],-0.484
same,glycan array binding signal (z-score),[45],0.034

# Random excerpt: 3 records from the list.
binder,measurement,setting,value
"Layilin (Mus musculus), Q8C351 (protein) MQPGAALQAMLLAVLLAKPRDSKGRLLSASDLDPRGGQLVCRGGTRRPCYKVIYFHDAFQRLNFEEAKETCMEDGGQLVSIETEDEQRLIEKFIENLLASDGDFWIGLKRLEEKQSNNTACQDLYAWTDGSTSQFRNWYVDEPSCGSEVCVVMYHQPSAPPGIGGSYMFQWNDDRCNMKNNFICKYHDDKPSTTPSIWPGGEATEPATPLLPEETQKEDTKETFKERREAALNLAYILIPSIPLFLLLVVTSAVCWVWICRRKREQTDPSTKEQHTIWPTPRQENSPNLDVYNVIRKQSEADLAEPRPDLKNISFRVCSGEAMPDDMSCDYENIAVNPSESGFVTLASMESGFVTNDIYEFSPDRMGRSKESGWVENEIYY",glycan array binding signal (z-score),[12],-0.278
same,glycan array binding signal (z-score),[31],1.24
same,glycan array binding signal (z-score),[42],-0.932
